Whole data set: some 33,000 sequences, median “E-score (-0.5 to 0.5)” near -0.016, cut for the highest 2% near 0.3. Some of the results follow.
target: T1, Yer184c (UniProt P39961); assay: PBM E-score (8-mer binding enrichment) (E-score (-0.5 to 0.5)); higher = stronger / more preferred TF binding; conditions: protein concentration: 100 nM; construct: GST-full length
T1 sequence: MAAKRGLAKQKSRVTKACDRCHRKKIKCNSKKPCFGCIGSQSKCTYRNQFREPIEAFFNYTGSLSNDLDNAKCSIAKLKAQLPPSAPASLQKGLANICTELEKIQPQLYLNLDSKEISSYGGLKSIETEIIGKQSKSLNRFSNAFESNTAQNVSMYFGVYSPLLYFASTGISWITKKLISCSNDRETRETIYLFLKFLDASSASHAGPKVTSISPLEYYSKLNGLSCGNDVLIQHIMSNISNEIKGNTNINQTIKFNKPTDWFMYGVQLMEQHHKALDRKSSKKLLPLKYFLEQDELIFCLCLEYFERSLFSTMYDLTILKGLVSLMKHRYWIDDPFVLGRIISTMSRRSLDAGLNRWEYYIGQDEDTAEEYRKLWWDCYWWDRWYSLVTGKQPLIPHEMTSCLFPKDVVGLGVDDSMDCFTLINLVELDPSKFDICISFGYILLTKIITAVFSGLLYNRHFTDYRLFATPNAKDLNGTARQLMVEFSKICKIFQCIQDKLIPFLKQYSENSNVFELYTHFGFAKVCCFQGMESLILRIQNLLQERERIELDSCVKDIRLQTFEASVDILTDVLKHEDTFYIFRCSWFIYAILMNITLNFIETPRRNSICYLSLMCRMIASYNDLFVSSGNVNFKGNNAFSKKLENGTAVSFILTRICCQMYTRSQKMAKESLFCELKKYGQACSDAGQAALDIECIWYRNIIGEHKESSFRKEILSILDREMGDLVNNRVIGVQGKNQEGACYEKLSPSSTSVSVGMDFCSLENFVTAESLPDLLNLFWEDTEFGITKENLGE
Procedure: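 Universal 'all 10-mer' protein binding microarrays (Agilent AMADID 015681) probed with GST-tagged S. cerevisiae TFs (full-length or DBD) made by in vitro transcription/translation (PURExpress), about 100-200 nM. Bound TF was detected with fluorescent anti-GST. Each ungapped 8-mer (which stands for itself and its reverse complement) is scored by the PBM enrichment score (E-score), a modified Wilcoxon-Mann-Whitney statistic from -0.5 to +0.5, computed with the Universal PBM Analysis Suite. Scale: above 0.35 generally sequence-specific binding.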

| Sequence | PBM E-score |
| --- | --- |
| CAGGAAAA | 0.105 |
| CGCGAGAA | -0.0977 |
| CCGTATGC | 0.00142 |
| GTCCATGA | -0.0857 |
| GCGCGACC | -0.0593 |
| CAGAAGGA | -0.224 |
| AACCTAAG | -0.181 |
| TTCTTAAA | -0.126 |
| CAGTTAAA | -0.0293 |
| AGCCCTCG | -0.11 |
| AACAGATG | -0.128 |
| CTTGGATA | 0.00064 |
| ACCAGTAG | 0.0107 |
| AAGGGTCT | -0.267 |
| GTTTAGGA | -0.163 |
| ATTGGCGA | -0.202 |
| AGAGCGGA | 0.0727 |
| AATCACCT | 0.0242 |
| AAGGACTT | -0.131 |
| ATCTCATC | -0.163 |
| AGCCTCAT | -0.146 |
| CGAACCCA | -0.0147 |
| AAACTCTC | 0.169 |
| CATGGTTA | 0.0706 |
| CTGTACGA | -0.0324 |

| Sequence | PBM E-score |
| --- | --- |
| AGTGTGAG | -0.0574 |
| CAAATCCA | -0.0241 |
| CGCCACCG | -0.156 |
| CCTGGGAA | -0.0199 |
| ACGGTCAA | 0.0577 |
| CCGATTCG | 0.358 |
| CATTACGA | -0.206 |
| AACGATAA | 0.0408 |
| ATAACCCG | -0.00825 |
| CCTGATCA | -0.234 |
| AAAGGATC | 0.0245 |
| CGTCATCC | -0.138 |
| AGCAGAGC | -0.00172 |
| AGGACGTC | -0.12 |
| ATAAAGGG | -0.102 |
| GCCTTGCA | -0.148 |
| ACAATGCC | -0.171 |
| CCTCTAAA | -0.235 |
| AGCATCTC | -0.205 |
| GCACAAAA | 0.272 |
| ACCCTCTC | -0.312 |
| CACCATCG | -0.286 |
| GTCCCTAA | -0.158 |
| CTCGCAAA | -0.158 |
| GACTGTAC | -0.171 |

A second format for part of the listing above.
Sequence,PBM E-score
GTCCATGA,-0.0857
GCGCGACC,-0.0593

(listing goes on)

| Sequence | PBM E-score |
| --- | --- |
| ATTGCGCG | 0.183 |
| GGAAGCAA | -0.0564 |
| GACACGGC | 0.1 |
| ATCATTTA | 0.188 |
| CATAAGGC | -0.00543 |
| ACCTAATC | 0.168 |
| AAAGATAT | 0.0801 |
| ATGTGGAG | 0.00063 |
| GAATGCCC | -0.238 |
| TCGCAGCA | -0.0737 |
| CCAGATTC | -0.167 |
| CACGCCCG | 0.13 |
| GAAACATC | -0.00669 |
| CATCCGTC | -0.0104 |
| AGATTGCC | 0.00777 |
| CGACAATA | 0.213 |
| TCGCATAA | 0.146 |
| GTGATACA | 0.0287 |
| ATGCCTGA | -0.108 |
| ATTAGCCC | -0.0368 |
| CTCCCAAG | -0.0182 |
| GTCCTTCA | 0.0902 |
| AATACAGT | 0.0667 |
| CTCACGTA | -0.112 |
| CGAACGTC | -0.0167 |

A run of entries from the list above:

| Sequence | PBM E-score |
| --- | --- |
| CATGGTTA | 0.0706 |
| CTGTACGA | -0.0324 |
| AGTGTGAG | -0.0574 |
| CAAATCCA | -0.0241 |
| CGCCACCG | -0.156 |
| CCTGGGAA | -0.0199 |
| ACGGTCAA | 0.0577 |

Later entries

| Sequence | PBM E-score |
| --- | --- |
| AAAGGGTT | -0.104 |
| AAGTTTAA | 0.0658 |
| GACCTGCA | -0.23 |
| ACATACAA | 0.0459 |
| AAACCCTG | -0.06 |
| CCCCAGCG | -0.297 |
| CACTCGGG | 0.0303 |
| TACCCCAA | -0.211 |
| AAAATTAG | 0.227 |
| AGGTGCTG | -0.0532 |
| CATACAAA | 0.251 |
| AACGAGAC | -0.0699 |
| CTCTAATA | 0.116 |
| ACCTCGTG | 0.0639 |
| AACAGCCA | 0.0707 |
| AAACTGAA | 0.18 |
| ACGACCGG | 0.0371 |
| AAGGGTTC | -0.192 |
| ACTTATTG | -0.0498 |
| ATTATGTG | 0.0515 |
| ATGTCGTC | -0.195 |
| ACTTCGCC | 0.0925 |
| AAGGATAC | -0.0139 |
| CGAGTTCA | 0.0543 |
| GGGCCTAA | -0.096 |

Rewritten with each value named: entries from further up
ACTTCGCC
  PBM E-score = 0.0925
AAGGATAC
  PBM E-score = -0.0139

(next part)

| Sequence | PBM E-score |
| --- | --- |
| CCTTTACA | -0.0847 |
| CCACGATA | 0.0573 |
| CTGACCAG | -0.0878 |
| ATAGACGG | 0.0173 |
| AGCGAGAG | 0.0132 |
| AGTAGAGG | -0.25 |
| TAACTGTA | -0.0459 |
| GCCACGAC | -0.0252 |
| AGTTACGC | -0.0915 |
| ATTGGAAC | 0.167 |
| AATGACCT | -0.0871 |
| CCATGGAA | -0.0496 |
| GTGTGGAA | 0.0192 |
| CTCTGTTA | -0.0157 |
| CTACATCA | -0.0855 |
| TAGTATCA | 0.279 |
| GAAAGGAA | 0.124 |
| AGGTGATG | -0.253 |
| GCACTGTA | 0.112 |
| CGCTTCAC | -0.0514 |
| GGGGAACA | -0.17 |
| ATACCCGA | 0.111 |
| AGAGTAGG | -0.0378 |
| ACTCTTGC | 0.0195 |
| CGACCCAA | -0.00796 |

| Sequence | PBM E-score |
| --- | --- |
| GAATTGTC | -0.0406 |
| ATCTGAGG | -0.076 |
| CTCCCGCC | 0.0349 |
| ACGTTCTC | 0.022 |
| AGCAGAGG | -0.202 |
| GTGGTTTA | -0.0674 |
| CAGAGCGA | 0.205 |
| TTATTCAA | 0.3 |
| AGGGGCGA | -0.351 |
| CCTCGCAA | -0.166 |
| GCGCGCCA | 0.145 |
| ACATCTAA | 0.00363 |
| AACCCTCG | -0.0517 |
| AGTCAAAT | -0.0729 |
| ATGATAGG | -0.0453 |
| AGGGTCCA | -0.124 |
| GCATACGC | -0.0872 |
| AGCAGTAA | -0.0259 |
| AGGAAACG | -0.107 |
| CCCGTAAC | 0.0683 |
| TGAGGCAA | -0.0663 |
| ACTCTATG | -0.164 |
| ACGGTCAG | -0.0874 |
| CTCCGGAG | 0.416 |
| ACATTGAG | -0.0299 |

| Sequence | PBM E-score |
| --- | --- |
| GACTTAGA | -0.081 |
| TTACATAA | 0.141 |
| CACCCTTC | -0.218 |
| CAACAAAA | 0.251 |
| CAGTTACG | -0.14 |
| TCCAGAAA | -0.0281 |
| ATGCTATC | -0.0729 |
| CTAAGTGA | 0.0817 |
| ACTGTGAA | 0.14 |
| GGTGAGAA | 0.141 |
| CACTTGCA | -0.0519 |
| CAAGGCGA | -0.184 |
| ACTCGATC | -0.00141 |
| ACCGGCAA | 0.222 |
| GACGACAC | -0.0847 |
| CAGATGAA | -0.0856 |
| AACAGCCG | 0.107 |
| ACAGCATA | 0.078 |
| AGTTTACC | 0.136 |
| CCTAGGCC | -0.229 |
| CAAAGGGG | -0.23 |
| AGATTCAG | 0.0599 |

Reference: the supplement of paper PMC3334620
